Measurements as given in the supplement of paper PMC10849652.
The list shows a part of the results.

Amino acid sequences for entries named in this document (tags omitted). A change or cut given only in a name is not applied to a line headed by its entry.
UniProt Q96G03: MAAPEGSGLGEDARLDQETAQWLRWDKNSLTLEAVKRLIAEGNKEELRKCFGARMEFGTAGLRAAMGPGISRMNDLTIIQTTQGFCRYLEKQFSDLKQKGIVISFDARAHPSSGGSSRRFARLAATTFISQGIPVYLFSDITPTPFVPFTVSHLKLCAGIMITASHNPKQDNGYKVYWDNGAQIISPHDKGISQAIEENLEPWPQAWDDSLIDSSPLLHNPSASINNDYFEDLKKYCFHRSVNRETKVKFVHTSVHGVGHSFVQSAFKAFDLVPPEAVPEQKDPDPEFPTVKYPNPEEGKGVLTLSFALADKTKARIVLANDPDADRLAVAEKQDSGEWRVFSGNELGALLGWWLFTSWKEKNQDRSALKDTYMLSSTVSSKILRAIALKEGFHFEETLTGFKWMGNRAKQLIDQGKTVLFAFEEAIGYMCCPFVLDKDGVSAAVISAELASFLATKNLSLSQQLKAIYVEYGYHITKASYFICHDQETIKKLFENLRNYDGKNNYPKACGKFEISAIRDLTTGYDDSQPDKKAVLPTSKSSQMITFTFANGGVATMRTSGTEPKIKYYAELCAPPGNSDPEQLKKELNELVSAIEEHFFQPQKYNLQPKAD
UniProt Q15111: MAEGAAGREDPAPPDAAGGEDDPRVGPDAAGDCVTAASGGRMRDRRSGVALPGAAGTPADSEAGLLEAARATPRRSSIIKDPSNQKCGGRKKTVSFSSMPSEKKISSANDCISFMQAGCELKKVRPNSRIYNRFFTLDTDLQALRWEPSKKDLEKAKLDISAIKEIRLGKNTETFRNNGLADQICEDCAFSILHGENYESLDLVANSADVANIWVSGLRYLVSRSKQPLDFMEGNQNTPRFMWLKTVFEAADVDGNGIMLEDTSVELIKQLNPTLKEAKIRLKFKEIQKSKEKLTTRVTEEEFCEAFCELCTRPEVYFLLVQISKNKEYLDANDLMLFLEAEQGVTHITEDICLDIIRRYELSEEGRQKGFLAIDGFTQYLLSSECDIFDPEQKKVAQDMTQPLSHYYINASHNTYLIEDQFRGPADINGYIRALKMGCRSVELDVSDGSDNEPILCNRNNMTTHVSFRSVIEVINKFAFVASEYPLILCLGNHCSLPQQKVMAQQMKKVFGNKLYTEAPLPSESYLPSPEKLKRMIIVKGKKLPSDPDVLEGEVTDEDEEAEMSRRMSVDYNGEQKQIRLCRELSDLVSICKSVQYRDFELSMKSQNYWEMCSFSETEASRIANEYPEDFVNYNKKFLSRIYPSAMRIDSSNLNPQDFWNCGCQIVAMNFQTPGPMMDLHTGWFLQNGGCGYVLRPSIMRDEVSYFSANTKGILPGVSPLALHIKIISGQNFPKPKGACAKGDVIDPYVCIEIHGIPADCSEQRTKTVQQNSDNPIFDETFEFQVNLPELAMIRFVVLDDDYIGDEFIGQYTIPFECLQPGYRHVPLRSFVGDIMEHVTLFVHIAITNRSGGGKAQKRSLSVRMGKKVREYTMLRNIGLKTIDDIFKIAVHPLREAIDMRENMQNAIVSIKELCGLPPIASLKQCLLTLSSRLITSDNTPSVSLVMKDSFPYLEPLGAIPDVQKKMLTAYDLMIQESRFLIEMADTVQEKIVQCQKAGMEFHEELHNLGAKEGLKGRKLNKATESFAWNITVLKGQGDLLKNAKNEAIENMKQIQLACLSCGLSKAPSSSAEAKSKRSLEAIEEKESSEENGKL
UniProt O75167: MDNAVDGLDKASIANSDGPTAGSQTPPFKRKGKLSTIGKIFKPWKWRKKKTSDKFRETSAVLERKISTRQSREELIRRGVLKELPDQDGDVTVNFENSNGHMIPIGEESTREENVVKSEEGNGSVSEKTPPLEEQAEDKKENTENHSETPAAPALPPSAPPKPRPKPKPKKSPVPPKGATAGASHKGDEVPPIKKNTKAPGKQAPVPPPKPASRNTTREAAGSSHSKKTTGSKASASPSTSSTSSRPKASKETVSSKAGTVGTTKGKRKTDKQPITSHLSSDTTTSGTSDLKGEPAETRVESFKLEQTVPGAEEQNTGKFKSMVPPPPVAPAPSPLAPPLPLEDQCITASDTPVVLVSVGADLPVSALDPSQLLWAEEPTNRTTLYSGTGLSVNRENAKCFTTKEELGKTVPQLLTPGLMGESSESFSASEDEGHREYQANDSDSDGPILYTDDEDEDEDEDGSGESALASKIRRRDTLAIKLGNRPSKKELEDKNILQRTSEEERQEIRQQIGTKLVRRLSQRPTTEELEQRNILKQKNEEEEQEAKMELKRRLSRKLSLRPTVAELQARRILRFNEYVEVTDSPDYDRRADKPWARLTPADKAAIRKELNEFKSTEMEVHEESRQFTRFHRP
UniProt Q86T03: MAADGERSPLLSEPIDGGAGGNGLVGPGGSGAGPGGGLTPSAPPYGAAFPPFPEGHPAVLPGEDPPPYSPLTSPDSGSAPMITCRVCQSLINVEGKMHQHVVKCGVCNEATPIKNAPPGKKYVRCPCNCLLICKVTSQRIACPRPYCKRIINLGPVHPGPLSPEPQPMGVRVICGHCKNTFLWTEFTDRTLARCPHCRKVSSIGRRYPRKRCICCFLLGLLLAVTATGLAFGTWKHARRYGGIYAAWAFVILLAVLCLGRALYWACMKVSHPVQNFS
UniProt P27986, whole entry, looked up: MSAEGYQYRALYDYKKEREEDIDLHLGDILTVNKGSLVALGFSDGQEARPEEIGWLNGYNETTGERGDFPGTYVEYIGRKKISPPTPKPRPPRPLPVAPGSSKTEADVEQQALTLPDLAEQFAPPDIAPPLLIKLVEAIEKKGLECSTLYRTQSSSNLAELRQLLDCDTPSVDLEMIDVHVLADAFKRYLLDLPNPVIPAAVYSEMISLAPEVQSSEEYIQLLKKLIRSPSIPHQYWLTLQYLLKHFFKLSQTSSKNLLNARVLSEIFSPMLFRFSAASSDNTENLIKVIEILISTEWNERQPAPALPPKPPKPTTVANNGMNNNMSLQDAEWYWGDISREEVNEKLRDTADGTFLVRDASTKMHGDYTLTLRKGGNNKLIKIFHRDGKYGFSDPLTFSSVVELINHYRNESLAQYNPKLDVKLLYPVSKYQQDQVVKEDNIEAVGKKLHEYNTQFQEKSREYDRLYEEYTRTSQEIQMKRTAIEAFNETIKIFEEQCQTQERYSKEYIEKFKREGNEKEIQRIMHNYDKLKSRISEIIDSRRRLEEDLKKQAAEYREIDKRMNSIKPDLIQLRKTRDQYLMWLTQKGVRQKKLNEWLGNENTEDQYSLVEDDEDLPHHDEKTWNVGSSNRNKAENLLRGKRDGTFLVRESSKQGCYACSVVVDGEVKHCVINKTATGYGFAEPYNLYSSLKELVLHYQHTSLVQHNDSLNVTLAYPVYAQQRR
UniProt Q969N2: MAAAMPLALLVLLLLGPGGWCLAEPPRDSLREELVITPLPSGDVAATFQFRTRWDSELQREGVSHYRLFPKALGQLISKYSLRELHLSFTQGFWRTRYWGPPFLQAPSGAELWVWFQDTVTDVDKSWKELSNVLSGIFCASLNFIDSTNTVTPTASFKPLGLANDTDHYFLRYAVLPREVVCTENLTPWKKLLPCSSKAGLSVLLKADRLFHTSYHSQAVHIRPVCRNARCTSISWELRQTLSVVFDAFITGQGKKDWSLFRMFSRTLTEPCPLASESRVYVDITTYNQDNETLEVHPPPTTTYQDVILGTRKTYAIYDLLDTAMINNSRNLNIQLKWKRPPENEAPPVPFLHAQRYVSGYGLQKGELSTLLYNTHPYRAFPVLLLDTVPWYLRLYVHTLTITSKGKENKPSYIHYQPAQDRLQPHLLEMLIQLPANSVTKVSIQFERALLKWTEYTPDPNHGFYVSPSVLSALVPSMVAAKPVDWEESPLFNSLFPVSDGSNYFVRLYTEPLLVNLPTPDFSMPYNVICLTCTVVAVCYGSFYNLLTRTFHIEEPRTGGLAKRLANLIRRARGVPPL
UniProt Q9NWS0, whole entry, looked up: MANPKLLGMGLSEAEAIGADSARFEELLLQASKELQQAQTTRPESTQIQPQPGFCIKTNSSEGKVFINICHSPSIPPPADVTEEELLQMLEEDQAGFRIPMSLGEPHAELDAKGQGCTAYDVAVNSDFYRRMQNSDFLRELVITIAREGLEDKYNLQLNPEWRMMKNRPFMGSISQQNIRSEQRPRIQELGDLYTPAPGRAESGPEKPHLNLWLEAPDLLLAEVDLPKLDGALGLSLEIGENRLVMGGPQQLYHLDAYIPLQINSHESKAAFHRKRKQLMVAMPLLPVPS
UniProt P53609, whole entry, looked up: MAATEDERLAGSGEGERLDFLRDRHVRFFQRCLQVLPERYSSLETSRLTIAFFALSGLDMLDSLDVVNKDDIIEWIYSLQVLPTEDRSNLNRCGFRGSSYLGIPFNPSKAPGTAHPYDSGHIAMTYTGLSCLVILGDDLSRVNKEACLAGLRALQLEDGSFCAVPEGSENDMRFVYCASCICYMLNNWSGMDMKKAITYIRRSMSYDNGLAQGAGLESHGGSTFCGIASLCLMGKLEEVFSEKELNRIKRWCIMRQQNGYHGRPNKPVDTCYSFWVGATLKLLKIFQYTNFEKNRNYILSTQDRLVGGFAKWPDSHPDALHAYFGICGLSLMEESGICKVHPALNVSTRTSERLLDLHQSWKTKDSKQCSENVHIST
UniProt P35232: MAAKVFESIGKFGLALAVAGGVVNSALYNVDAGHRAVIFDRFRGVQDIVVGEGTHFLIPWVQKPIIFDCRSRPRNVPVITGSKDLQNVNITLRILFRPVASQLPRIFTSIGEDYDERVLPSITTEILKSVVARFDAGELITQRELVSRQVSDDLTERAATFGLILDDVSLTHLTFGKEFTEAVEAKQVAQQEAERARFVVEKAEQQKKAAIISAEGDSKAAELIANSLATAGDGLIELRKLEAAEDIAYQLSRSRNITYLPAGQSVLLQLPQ
UniProt P48739: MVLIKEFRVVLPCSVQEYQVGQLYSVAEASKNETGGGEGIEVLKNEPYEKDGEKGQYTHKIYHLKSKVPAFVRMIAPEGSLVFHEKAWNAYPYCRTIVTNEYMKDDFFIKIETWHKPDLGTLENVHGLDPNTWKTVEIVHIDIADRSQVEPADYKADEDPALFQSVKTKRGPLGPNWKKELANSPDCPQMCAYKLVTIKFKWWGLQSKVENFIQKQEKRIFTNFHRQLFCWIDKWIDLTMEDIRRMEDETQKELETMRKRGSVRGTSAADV
UniProt Q9H490: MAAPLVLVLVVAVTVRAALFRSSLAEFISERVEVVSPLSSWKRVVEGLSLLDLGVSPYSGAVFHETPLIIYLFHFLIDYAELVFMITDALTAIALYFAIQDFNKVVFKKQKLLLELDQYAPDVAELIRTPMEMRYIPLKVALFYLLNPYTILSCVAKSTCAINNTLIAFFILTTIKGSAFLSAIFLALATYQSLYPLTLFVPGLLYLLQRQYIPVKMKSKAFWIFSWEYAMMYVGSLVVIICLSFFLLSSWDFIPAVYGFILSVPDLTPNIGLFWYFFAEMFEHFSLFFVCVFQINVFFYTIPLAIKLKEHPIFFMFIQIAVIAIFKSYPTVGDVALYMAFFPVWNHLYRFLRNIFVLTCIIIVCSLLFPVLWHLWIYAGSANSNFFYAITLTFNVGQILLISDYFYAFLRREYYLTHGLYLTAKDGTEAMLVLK
UniProt Q9BZM1: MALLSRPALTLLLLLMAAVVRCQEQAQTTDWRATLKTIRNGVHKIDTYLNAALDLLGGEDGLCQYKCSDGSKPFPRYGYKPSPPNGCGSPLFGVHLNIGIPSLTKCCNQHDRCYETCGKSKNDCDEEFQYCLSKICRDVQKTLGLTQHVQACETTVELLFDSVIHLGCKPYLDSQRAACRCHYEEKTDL
UniProt Q8TBX8: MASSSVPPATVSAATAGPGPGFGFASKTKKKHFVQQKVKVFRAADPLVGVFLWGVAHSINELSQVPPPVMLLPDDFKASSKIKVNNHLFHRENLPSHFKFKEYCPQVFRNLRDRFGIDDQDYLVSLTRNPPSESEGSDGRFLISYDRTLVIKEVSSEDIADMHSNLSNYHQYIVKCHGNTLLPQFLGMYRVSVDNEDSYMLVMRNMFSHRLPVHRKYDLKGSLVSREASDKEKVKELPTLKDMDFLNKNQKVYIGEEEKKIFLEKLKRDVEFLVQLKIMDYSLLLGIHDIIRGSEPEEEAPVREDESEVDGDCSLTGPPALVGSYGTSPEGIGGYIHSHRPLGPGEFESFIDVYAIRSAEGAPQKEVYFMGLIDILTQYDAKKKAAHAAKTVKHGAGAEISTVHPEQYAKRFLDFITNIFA
UniProt Q92643: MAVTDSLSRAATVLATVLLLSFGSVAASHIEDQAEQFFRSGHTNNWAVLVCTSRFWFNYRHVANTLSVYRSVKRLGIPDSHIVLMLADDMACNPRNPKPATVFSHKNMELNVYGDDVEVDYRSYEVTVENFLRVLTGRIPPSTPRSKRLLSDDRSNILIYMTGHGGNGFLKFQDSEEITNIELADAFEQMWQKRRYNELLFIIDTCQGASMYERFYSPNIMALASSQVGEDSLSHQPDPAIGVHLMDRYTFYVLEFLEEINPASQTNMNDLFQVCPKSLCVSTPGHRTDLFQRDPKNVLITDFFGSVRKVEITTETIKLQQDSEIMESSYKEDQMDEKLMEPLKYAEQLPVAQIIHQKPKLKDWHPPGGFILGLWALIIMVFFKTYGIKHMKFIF

Key:
Experiment in all cases: log2 fold change, soluble protein after heating vs DMSO (PISA); higher = thermal stabilisation; K562 lysate, 10 uM; active = over 0.2 and 3.5 SD of the protein, either way, in both replicates (recomputed)
lapatinib = compound: CS(=O)(=O)CCNCc1ccc(-c2ccc3ncnc(Nc4ccc(OCc5cccc(F)c5)c(Cl)c4)c3c2)o1 [lapatinib]
Method in brief: (§1)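 Following dounce homogenisation of K562 pellets in PBS pH 7.4 with 1 mM MgCl2, crude extract at 1 mg/mL protein was incubated for 30 min with 10 μM compound. Aliquots were then heated for 3 min over 48°C-58°C and pooled, NP-40 was added to 0.5% at 4°C, and soluble protein was recovered as the supernatant at 21,000xg for 90 min. Channel-sum-equalised TMTpro 16plex LC-MS/MS quantified this protein. Each value, from duplicates, is a log-two fold change in thermal stability relative to solvent controls.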

pictilisib = compound: CS(=O)(=O)N1CCN(Cc2cc3nc(-c4cccc5[nH]ncc45)nc(N4CCOCC4)c3s2)CC1 [pictilisib]
Method in brief: as §1

crizotinib = compound: C[C@@H](Oc1cc(-c2cnn(C3CCNCC3)c2)cnc1N)c1c(Cl)ccc(F)c1Cl [crizotinib]
Method in brief: as §1

[1] = compound: C[C@H](C1=CC=C(C=C1)C(=O)NC2=C3C=CNC3=NC=C2)N
Method in brief: as §1

duvelisib = compound: C[C@H](Nc1ncnc2nc[nH]c12)c1cc2cccc(Cl)c2c(=O)n1-c1ccccc1 [duvelisib]
Method in brief: as §1

gandotinib = compound: Cc1cc(Nc2cc(CN3CCOCC3)c3nc(C)c(Cc4ccc(Cl)cc4F)n3n2)n[nH]1 [gandotinib]
Method in brief: as §1

tozasertib = compound: Cc1cc(Nc2cc(N3CCN(C)CC3)nc(Sc3ccc(NC(=O)C4CC4)cc3)n2)n[nH]1 [tozasertib]
Method in brief: as §1

doramapimod = compound: Cc1ccc(-n2nc(C(C)(C)C)cc2NC(=O)Nc2ccc(OCCN3CCOCC3)c3ccccc23)cc1 [doramapimod]
Method in brief: as §1

bafetinib = compound: Cc1ccc(NC(=O)c2ccc(CN3CC[C@H](N(C)C)C3)c(C(F)(F)F)c2)cc1Nc1nccc(-c2cncnc2)n1 [bafetinib]
Method in brief: as §1

[2] = compound: Cc1cccc(CC(=O)N2CCc3c2ccc(-c2cn(C)c4ncnc(N)c24)c3F)n1
Method in brief: as §1

Measured: log2 fold change

PGM2 (UniProt Q96G03)
inactive: lapatinib -0.01 | pictilisib 0.01 | crizotinib 0.021 | [1] 0 | duvelisib 0.012 | gandotinib 0.013 | tozasertib -0.015 | doramapimod 0.001 | bafetinib 0.026 | [2] -0.035

PHRF1 (UniProt Q9P1Y6)
inactive: lapatinib -0.092 | pictilisib -0.075 | crizotinib 0.025 | [1] -0.038 | duvelisib -0.006 | gandotinib 0.071 | tozasertib 0.004 | doramapimod 0.009 | bafetinib 0.059 | [2] 0.086

PHGDH (UniProt O43175)
inactive: lapatinib -0.053 | pictilisib 0.005 | crizotinib 0 | [1] 0.076 | duvelisib 0 | gandotinib -0.071 | tozasertib 0.019 | doramapimod -0.039 | bafetinib 0.032 | [2] -0.055

PLCL1 (UniProt Q15111)
inactive: lapatinib -0.014 | pictilisib -0.044 | crizotinib -0.06 | [1] -0.01 | duvelisib 0.049 | gandotinib -0.017 | tozasertib -0.019 | doramapimod 0.014 | bafetinib 0.049 | [2] 0.043

PHACTR2 isoform 4 (UniProt O75167)
inactive: lapatinib 0.075 | pictilisib -0.028 | crizotinib -0.015 | [1] 0.062 | duvelisib -0.21 | gandotinib -0.2 | tozasertib 0.292 | doramapimod 0.009 | bafetinib 0.093 | [2] 0.03

PHYKPL (UniProt Q8IUZ5)
inactive: lapatinib -0.019 | pictilisib -0.117 | crizotinib 0.017 | [1] -0.066 | duvelisib 0.219 | gandotinib 0.031 | tozasertib 0.064 | doramapimod 0.016 | bafetinib -0.072 | [2] 0.014

PIP4P1 isoform 2 (UniProt Q86T03)
inactive: lapatinib 0.047 | pictilisib -0.083 | crizotinib -0.005 | [1] -0.108 | duvelisib 0.115 | gandotinib 0.015 | tozasertib 0.057 | doramapimod 0.041 | bafetinib 0.1 | [2] 0.042

PGLS (UniProt O95336)
inactive: lapatinib 0.068 | pictilisib 0.011 | crizotinib 0 | [1] 0.206 | duvelisib 0.033 | gandotinib -0.084 | tozasertib 0.008 | doramapimod 0.004 | bafetinib -0.031 | [2] -0.14

PI4KB (UniProt Q9UBF8)
inactive: lapatinib 0.02 | pictilisib 0.031 | crizotinib -0.011 | [1] -0.01 | duvelisib 0.005 | gandotinib 0.011 | tozasertib -0.02 | doramapimod 0.055 | bafetinib -0.073 | [2] 0.014

PIK3R1 (UniProt P27986)
inactive: lapatinib 0.002 | pictilisib 0.374 | crizotinib -0.015 | [1] 0.033 | gandotinib 0.171 | tozasertib 0.039 | doramapimod -0.02 | bafetinib 0.007 | [2] -0.011
active: duvelisib 0.534

PIGT (UniProt Q969N2)
inactive: lapatinib -0.105 | pictilisib -0.059 | crizotinib -0.027 | [1] -0.082 | duvelisib -0.029 | gandotinib -0.035 | tozasertib 0.023 | doramapimod -0.01 | bafetinib -0.049 | [2] 0.043

PIH1D1 (UniProt Q9NWS0)
inactive: lapatinib 0.041 | pictilisib -0.017 | crizotinib -0.005 | [1] 0.024 | duvelisib 0.01 | gandotinib 0.013 | tozasertib 0.02 | doramapimod 0.014 | bafetinib 0.058 | [2] 0.005

PI4K2A (UniProt Q9BTU6)
inactive: lapatinib -0.02 | pictilisib -0.036 | crizotinib 0.003 | [1] -0.006 | duvelisib 0.054 | gandotinib -0.03 | tozasertib -0.025 | doramapimod -0.008 | bafetinib 0.008 | [2] 0.014

PGGT1B (UniProt P53609)
inactive: lapatinib 0.013 | pictilisib -0.012 | crizotinib 0.01 | [1] 0.013 | duvelisib -0.019 | gandotinib -0.158 | tozasertib 0.083 | doramapimod 0.047 | bafetinib 0.076 | [2] -0.074

PLCD1 isoform 2 (UniProt P51178)
inactive: lapatinib 0.023 | pictilisib -0.029 | crizotinib -0.084 | [1] -0.003 | duvelisib 0.042 | gandotinib -0.012 | tozasertib 0.054 | doramapimod 0.106 | bafetinib -0.011 | [2] -0.023

PHF5A (UniProt Q7RTV0)
inactive: lapatinib 0.028 | pictilisib 0.013 | crizotinib 0.091 | [1] -0.064 | duvelisib -0.014 | gandotinib 0.036 | tozasertib 0.026 | doramapimod -0.044 | bafetinib 0.058 | [2] 0.039

PHB (UniProt P35232)
inactive: lapatinib 0.028 | pictilisib 0.032 | crizotinib 0.023 | [1] 0.024 | duvelisib 0.099 | gandotinib -0.047 | tozasertib 0.054 | doramapimod 0.012 | bafetinib 0.013 | [2] -0.01

PICALM (UniProt Q13492)
inactive: lapatinib 0.012 | pictilisib 0.001 | crizotinib 0.024 | [1] 0.052 | duvelisib 0.012 | gandotinib 0.022 | tozasertib 0.013 | doramapimod 0.028 | bafetinib -0.055 | [2] -0.007

PIK3CB (UniProt P42338)
inactive: lapatinib -0.007 | crizotinib -0.068 | [1] 0.022 | gandotinib 0.096 | tozasertib 0.017 | doramapimod -0.006 | bafetinib -0.034 | [2] 0.012
active: pictilisib 0.497 | duvelisib 0.645

PITRM1 isoform 2 (UniProt Q5JRX3)
inactive: lapatinib -0.001 | pictilisib -0.025 | crizotinib 0.053 | [1] 0.04 | duvelisib 0.029 | gandotinib 0.013 | tozasertib 0.006 | doramapimod -0.024 | bafetinib -0.023 | [2] -0.062

PITPNB isoform 3 (UniProt P48739)
inactive: lapatinib 0.013 | pictilisib 0.005 | crizotinib 0.023 | [1] -0.017 | duvelisib -0.006 | gandotinib 0.006 | tozasertib -0.007 | doramapimod -0.024 | bafetinib -0.054 | [2] 0.011

PKN2 (UniProt Q16513)
inactive: lapatinib 0.005 | pictilisib -0.018 | crizotinib -0.116 | [1] -0.096 | duvelisib -0.012 | gandotinib -0.033 | doramapimod 0.036 | bafetinib -0.091 | [2] 0.119

7 consecutive records out of the list so far, quoted:
PGGT1B (UniProt P53609)
inactive: lapatinib 0.013 | pictilisib -0.012 | crizotinib 0.01 | [1] 0.013 | duvelisib -0.019 | gandotinib -0.158 | tozasertib 0.083 | doramapimod 0.047 | bafetinib 0.076 | [2] -0.074

PLCD1 isoform 2 (UniProt P51178)
inactive: lapatinib 0.023 | pictilisib -0.029 | crizotinib -0.084 | [1] -0.003 | duvelisib 0.042 | gandotinib -0.012 | tozasertib 0.054 | doramapimod 0.106 | bafetinib -0.011 | [2] -0.023

PHF5A (UniProt Q7RTV0)
inactive: lapatinib 0.028 | pictilisib 0.013 | crizotinib 0.091 | [1] -0.064 | duvelisib -0.014 | gandotinib 0.036 | tozasertib 0.026 | doramapimod -0.044 | bafetinib 0.058 | [2] 0.039

PHB (UniProt P35232)
inactive: lapatinib 0.028 | pictilisib 0.032 | crizotinib 0.023 | [1] 0.024 | duvelisib 0.099 | gandotinib -0.047 | tozasertib 0.054 | doramapimod 0.012 | bafetinib 0.013 | [2] -0.01

PICALM (UniProt Q13492)
inactive: lapatinib 0.012 | pictilisib 0.001 | crizotinib 0.024 | [1] 0.052 | duvelisib 0.012 | gandotinib 0.022 | tozasertib 0.013 | doramapimod 0.028 | bafetinib -0.055 | [2] -0.007

PIK3CB (UniProt P42338)
inactive: lapatinib -0.007 | crizotinib -0.068 | [1] 0.022 | gandotinib 0.096 | tozasertib 0.017 | doramapimod -0.006 | bafetinib -0.034 | [2] 0.012
active: pictilisib 0.497 | duvelisib 0.645

PITRM1 isoform 2 (UniProt Q5JRX3)
inactive: lapatinib -0.001 | pictilisib -0.025 | crizotinib 0.053 | [1] 0.04 | duvelisib 0.029 | gandotinib 0.013 | tozasertib 0.006 | doramapimod -0.024 | bafetinib -0.023 | [2] -0.062

Continued:

PICK1 (UniProt Q9NRD5)
inactive: lapatinib 0.032 | pictilisib -0.153 | crizotinib 0.004 | [1] -0.084 | duvelisib 0.061 | gandotinib 0.08 | tozasertib 0.108 | doramapimod -0.145 | bafetinib -0.159 | [2] 0.113

PIGU (UniProt Q9H490)
inactive: lapatinib -0.1 | pictilisib 0.005 | crizotinib -0.027 | [1] -0.094 | duvelisib -0.027 | gandotinib -0.044 | doramapimod 0.015 | bafetinib -0.122 | [2] 0.148

PIEZO2 isoform 4 (UniProt Q9H5I5)
inactive: lapatinib -0.069 | crizotinib -0.041 | tozasertib 0.011 | doramapimod -0.055

PIGQ (UniProt Q9BRB3)
inactive: lapatinib -0.114 | pictilisib -0.106 | crizotinib -0.064 | [1] -0.056 | gandotinib 0.153 | tozasertib -0.136 | doramapimod 0.119 | bafetinib -0.239 | [2] 0.013

PKM (UniProt H3BTN5)
inactive: lapatinib 0.115 | pictilisib -0.204 | crizotinib -0.048 | tozasertib 0.111 | doramapimod -0.004 | bafetinib 0.312

PLA2G12A (UniProt Q9BZM1)
inactive: lapatinib 0.092 | pictilisib 0.086 | crizotinib -0.055 | [1] 0.046 | duvelisib -0.017 | gandotinib 0.12 | doramapimod -0.026 | bafetinib 0.016 | [2] 0.084

PIP4K2C (UniProt Q8TBX8)
inactive: lapatinib -0.043 | pictilisib 0.063 | crizotinib -0.036 | [1] -0.128 | duvelisib 0.033 | gandotinib 0.109 | tozasertib -0.06 | doramapimod 0.006 | [2] -0.032
active: bafetinib 0.664

PHKB isoform 3 (UniProt Q93100)
inactive: lapatinib -0.042 | pictilisib 0.025 | crizotinib 0.026 | [1] -0.126 | duvelisib -0.025 | gandotinib 0.127 | tozasertib -0.021 | doramapimod -0.061 | bafetinib -0.012 | [2] 0.027

PIGK (UniProt Q92643)
inactive: lapatinib -0.095 | pictilisib -0.002 | crizotinib -0.049 | [1] -0.086 | duvelisib 0.062 | gandotinib 0.018 | tozasertib 0.038 | doramapimod -0.006 | bafetinib -0.013 | [2] 0.121
